Assay results published in ChEMBL document CHEMBL4513154, “CO-ADD screening of Jain University (India) compounds”.
Some of the results follow. Potency and affinity values are given separately.

system: Acinetobacter baumannii; conditions: Concentration 32 ug.mL-1; ASSAY_TEST Inhibition of Bacterial Growth; detection method Absorption (OD600); MEDIA CAMHB; plate type 384well; NBS; CORNING #3640; time 18 hr

Structure (SMILES)	Inhibition
Clc1ccc2c(c1)nc(-c1cscn1)n2Cc1ccc(Cl)nc1	-10.91%
Clc1ccc(Cn2c(-c3cscn3)nc3ccccc32)cn1	2.13%
Clc1ccc(Cn2c(-c3cscn3)nc3c(Cl)cccc32)cn1	-9.47%
